Assay results published in PubChem BioAssay AID493014 (National Center for Advancing Translational Sciences (NCATS), 2011).
The other results are listed elsewhere or left out. The main result of the screen is listed elsewhere. These columns were measured beside it and carry no call. Compounds called inactive in the main read-out are mostly missing here. Potencies come from curve fits of mixed quality, noted in brackets.

Experiment: qHTS Assay to Find Inhibitors of Chronic Active B-Cell Receptor Signaling
Details: ABC-DLBCL IkBa-CBG/CBR reporter, luminescence ratio (green luciferase fused to IkBa over red control in TMD8 lymphoma cells), 4 h
In short: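 Concentration-response series (up to 46 uM) were applied to TMD8 dual-reporter cells for 4 h at 37C with doxycycline. Green/red ratio, after filter-overlap correction, defined %Activity; red signal alone was normalised to basal cells and zero luminescence.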

[1] = measured here: CBR red luminescence, cell number
[2] = measured here: IkBa-CBG green luminescence

Compound	AC50 [1]	AC50 [2]
OCCN1CCN(CCCN2c3ccccc3Sc3ccc(C(F)(F)F)cc32)CC1	23.1 µM [falling, partial curve]	7.94 µM [rising, partial curve]
Cc1cc(NCc2ccccn2)n2ncc(-c3ccccc3)c2n1	35.5 µM [falling, single point]	
Cc1c(Cc2ccccc2)sc(N)c1C(N)=O	32.6 µM [rising, single point]	
CCC(=O)c1ccc(O)c(CC=C(C)C)c1	15.8 µM [rising, single point]	
c1ccc(-c2nc(C3CCCCC3)c3ccccc3n2)cc1	20.6 µM [falling, single point]	
O=C(O)C1CCCN1C(=O)c1cncc(Br)c1 (stereo not drawn)	2.82 µM [rising, single point]	
Cc1ccc(NC(=O)C(Cc2ccccc2)n2cccc2)cc1 (stereo not drawn)	12.6 µM [rising, partial curve, poor fit]	
O=C(NC1CCCCC1)N1CCc2[nH]c3ccccc3c2C1	11.2 µM [falling, partial curve]	
Cc1ccc(-c2noc(CN(C(=O)c3ccc4c(c3)OCO4)C(C)C)n2)cc1	12.6 µM [falling, single point]	
COc1ccc(CCNC(=O)C/C(C)=N/NC(=O)c2cnccn2)cc1	20 µM [falling, partial curve, poor fit]	
CC(=O)COc1ccc2oc(=O)cc(-c3cc4ccccc4o3)c2c1	35.5 µM [falling, single point]	
CCNC(=O)COC(=O)c1csc2c1CCCC2	9.2 µM [rising, partial curve, poor fit]	
COc1cc(-c2nc(-c3ccccc3)c(-c3cc([N+](=O)[O-])ccc3C)[nH]2)cc(OC)c1OC	9.2 µM [falling, partial curve, poor fit]	
O=C(Nc1ccccc1SCC1CSc2nc3ccccc3c(=O)n21)c1cccc(Cl)c1 (stereo not drawn)	10.3 µM [falling, partial curve, poor fit]	
O=C(c1ccc(Br)s1)N1CCN(S(=O)(=O)c2ccccc2)CC1	6.31 µM [rising, single point]	
Cc1ccc(-c2nc(-c3ccncc3)no2)c(C)c1	3.16 µM [rising, full curve, poor fit]	
Cc1ccc2nc(C)c3c(c2c1)SCC3	6.31 µM [rising, partial curve]	
CCOC(=O)c1nnc(-c2ccccc2)nc1Oc1ccc(Cl)cc1	23.1 µM [falling, single point]	
COc1ccccc1-c1cc2nc(C)c(CCC(=O)NCc3ccc(F)cc3)c(C)n2n1	5.62 µM [falling, partial curve]	
Cc1ccc(NC(=O)Nc2nc3ccccc3s2)cc1NC(=O)Nc1nc2ccccc2s1	10 µM [falling, partial curve]	
COc1ccc(NC(=O)COC(=O)CCCC2=NS(=O)(=O)c3ccccc3N2)cc1Cl	14.1 µM [rising, partial curve, poor fit]	
O=C(NC(=S)Nc1ccccc1Br)c1cccnc1	2.82 µM [rising, partial curve, poor fit]	

Reformatted with bars between the fields: part of the list above
Compound | AC50 [1] | AC50 [2]
COc1cc(-c2nc(-c3ccccc3)c(-c3cc([N+](=O)[O-])ccc3C)[nH]2)cc(OC)c1OC | 9.2 µM [falling, partial curve, poor fit] | 
COc1ccc(NC(=O)COC(=O)CCCC2=NS(=O)(=O)c3ccccc3N2)cc1Cl | 14.1 µM [rising, partial curve, poor fit] | 

(further entries)

Compound	AC50 [1]	AC50 [2]
Cc1c(N2C(=O)C3C4C=CC(C4)C3C2=O)c(=O)n(-c2ccccc2)n1C (stereo not drawn)	15.8 µM [rising, single point]	
CC(=O)c1cccc(Nc2ncnc3c2cnn3C)c1	10 µM [falling, partial curve, poor fit]	
CCOC(=O)Nc1ccc2c(c1)N(C(=O)CCN1CCN3CCCC3C1)c1ccccc1CC2 (stereo not drawn)	0.259 µM [falling, full curve, poor fit]	
Cc1ccc(C)n1-n1cnc2sc(-c3ccccc3)cc2c1=O	20.6 µM [falling, single point]	
Cc1ccc(C2=NN(C3=NN=C(N)Cc4ncnn43)C(O)(C(F)(F)F)C2)cc1 (stereo not drawn)	17.8 µM [rising, partial curve, poor fit]	
CCc1nnc(NC(=O)CCn2cnc3ccccc3c2=O)s1	35.5 µM [falling, single point]	
CCOC(=O)CC1=C(C(=O)OCC)C(c2cccnc2)C(C#N)=C(N)O1 (stereo not drawn)	14.6 µM [falling, single point]	
C[C@@]12CCC=C[C@H]1[C@H](c1ccc3ccccc3c1Br)N(Cc1ccccc1)C2=O	35.5 µM [falling, single point]	
CCCC(=O)Oc1ccccc1C1SCc2cc(C)c(C)cc2CS1	6.31 µM [falling, single point]	
COc1ccc(C[C@H]2c3cc(O)c(OC)cc3CC[N+]2(C)[O-])cc1O (stereo partly drawn)	3.55 µM [rising, partial curve, poor fit]	
O=C(c1ccc(S(=O)(=O)N2CCOCC2)cc1)N1CCN(c2ccccn2)CC1	22.4 µM [falling, single point]	
NC(=S)N=Nc1c(O)n(Cc2ccc(Br)cc2)c2ccccc12		3.26 µM [falling, full curve]
CCSc1nc(=S)n(-c2ccccc2)c(C)c1C(C)=O	20.6 µM [falling, single point]	
Cc1ccsc1C(=O)Nc1nccs1	5.01 µM [falling, partial curve, poor fit]	
O=C(NCCC1CCCCN1S(=O)(=O)c1ccc(Cl)cc1)C(=O)NCc1ccncc1 (stereo not drawn)		6.51 µM [rising, partial curve, poor fit]
CCOc1ccc(CCNC(=O)Cc2ccc(NC3=NC4CS(=O)(=O)CC4S3)cc2)cc1 (stereo not drawn)	14.1 µM [rising, single point]	
C/C(=N\Nc1ccc(F)cc1F)c1ccc(Br)s1	10 µM [rising, partial curve]	
CCCCCc1c(O)nc(SCCN(CC)CC)[nH]c1=O	22.4 µM [falling, single point]	
COc1ccc(C2C=C(C)Nc3nc4ccccc4n32)cc1 (stereo not drawn)	35.5 µM [falling, single point]	
O=C1C=C(c2cccc(Cl)c2O)C[C@@H](c2ccc(F)cc2)C1	29.1 µM [falling, single point]	23.1 µM [rising, partial curve, poor fit]
CC(C)CCn1nc(C(=O)OC(C)C(=O)NC(N)=O)c2ccccc2c1=O (stereo not drawn)	0.562 µM [rising, full curve, poor fit]	
Cc1cc(NC(=O)c2cccs2)ncc1NC(=O)c1cccc(F)c1	20 µM [falling, single point]	

Compound	AC50 [1]	AC50 [2]
CCOC(=O)c1cnc2c(Cl)c(Cl)ccc2c1NCCN1CCOCC1	0.0891 µM [rising, full curve, poor fit]	
N#CCC(=O)Nc1ccc(C(=O)OCC(=O)N(Cc2ccccc2)C2CCS(=O)(=O)C2)cc1 (stereo not drawn)	35.5 µM [falling, single point]	
Cc1ccc(NC(=O)C2CC(=O)NC(N3CCc4ccccc43)=N2)cc1 (stereo not drawn)	5.17 µM [rising, single point]	
CCOC(=O)c1c(C)nc2ccccc2c1C		16.4 µM [falling, partial curve, poor fit]
Cc1cc(Nc2ccccc2)n(-c2ccccc2)n1	0.00461 µM [rising, full curve, poor fit]	
COC(=O)c1cc(OC)c(OC)cc1NC(=O)Nc1cccc(C(C)=O)c1	35.5 µM [rising, single point]	
CCOC(=O)C1(Cc2ccc(Cl)cc2)CCN(Cc2ccon2)CC1	1.58 µM [rising, partial curve, poor fit]	
CSc1nc(N2CCOCC2)c2sccc2n1	31.6 µM [falling, single point]	
C[C@H](NC(=O)c1[nH]cnc1C(=O)N[C@H](C)c1ccccc1)c1ccccc1	13 µM [falling, partial curve, poor fit]	
COc1ccc(NC(=O)c2ccccc2NC(=O)c2ccco2)c(OC)c1	3.55 µM [falling, partial curve]	
COc1cc(OC)cc(C(=O)Nc2ccc(N3CCN(C(=O)c4cccs4)CC3)cc2)c1	12.6 µM [falling, partial curve, poor fit]	
CCn1ccc2cc(OC)ccc2c1=S	1.58 µM [rising, full curve]	12.6 µM [falling, partial curve, poor fit]
O=C(c1noc2c1CCc1ccccc1-2)N1CCc2ccccc2C1	29.1 µM [falling, single point]	
COc1ccc(NC(=O)CCN2C(=O)NC3(CCCC3)C2=O)cc1Cl	25.9 µM [rising, single point]	
Cc1ccc2c(n1)sc1c(N)ncnc12	3.16 µM [falling, full curve]	
CCOc1cc(CNc2ccc3[nH]c(=O)[nH]c3c2)ccc1OCC(=O)NC(C)(C)C	29.1 µM [rising, partial curve, poor fit]	
CCOc1cc2[nH]c(=S)n(CCc3ccc(OC)c(OC)c3)c(=O)c2cc1OCC	29.1 µM [rising, single point]	
O=C(COC(=O)c1ccccn1)c1ccc([N+](=O)[O-])cc1	3.98 µM [falling, partial curve]	
COc1ccc(C2=Nc3ccccc3OC2)cc1	11.6 µM [falling, single point]	
O=C(Nc1ccccc1C(=O)N1CCCCCC1)c1cccc([N+](=O)[O-])c1	11.2 µM [falling, partial curve, poor fit]	
Cc1nn(-c2ccccc2)c(C)c1-c1ccccc1O	8.91 µM [rising, partial curve]	
